These are yes or no findings as the source states them, for the method shown. Binding seen in cells or lysates may run through a third protein. Some entries that bind do so weakly or less than the wild type.
Columns and labels:
[1] = target: endogenous AARS1 in DC tissues (human (endogenous in duodenal cancer tissue)) (UniProt P49588); test: co-IP; endogenous AARS1 and PARP1 in DC tissues
[2] = target: exogenous AARS1 (human) (UniProt P49588); test: co-IP; exogenous AARS1 and exogenous PARP1 in cultured Hutu80 cells and WDC-1 cells

Chains of the proteins cited; added tags and fusions are not shown.
UniProt P49588: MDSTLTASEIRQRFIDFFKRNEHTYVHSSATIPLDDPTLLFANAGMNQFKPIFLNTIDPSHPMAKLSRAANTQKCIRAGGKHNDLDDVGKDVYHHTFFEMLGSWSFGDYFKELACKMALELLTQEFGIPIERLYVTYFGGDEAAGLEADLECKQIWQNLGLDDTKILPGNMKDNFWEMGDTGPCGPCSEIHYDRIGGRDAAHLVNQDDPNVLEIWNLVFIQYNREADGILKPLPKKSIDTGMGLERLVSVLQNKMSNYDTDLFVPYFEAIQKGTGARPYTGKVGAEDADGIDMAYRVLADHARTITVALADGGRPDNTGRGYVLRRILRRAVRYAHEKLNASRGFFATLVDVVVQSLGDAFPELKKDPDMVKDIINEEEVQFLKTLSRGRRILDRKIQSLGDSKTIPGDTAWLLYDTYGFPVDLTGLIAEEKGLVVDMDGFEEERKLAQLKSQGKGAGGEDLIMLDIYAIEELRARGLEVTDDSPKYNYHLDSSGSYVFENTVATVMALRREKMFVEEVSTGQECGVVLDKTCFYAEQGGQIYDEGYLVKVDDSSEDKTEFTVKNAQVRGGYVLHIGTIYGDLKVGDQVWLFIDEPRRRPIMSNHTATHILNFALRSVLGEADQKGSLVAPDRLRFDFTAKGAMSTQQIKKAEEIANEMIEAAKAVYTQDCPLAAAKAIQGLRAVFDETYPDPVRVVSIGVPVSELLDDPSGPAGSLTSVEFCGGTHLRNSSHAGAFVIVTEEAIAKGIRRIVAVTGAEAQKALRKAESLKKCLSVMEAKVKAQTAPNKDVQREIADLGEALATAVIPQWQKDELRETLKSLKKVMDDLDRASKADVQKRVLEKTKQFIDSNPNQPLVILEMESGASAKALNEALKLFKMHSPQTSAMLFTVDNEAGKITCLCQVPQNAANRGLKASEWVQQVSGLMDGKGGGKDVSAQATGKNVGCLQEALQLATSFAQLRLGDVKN
UniProt P09874: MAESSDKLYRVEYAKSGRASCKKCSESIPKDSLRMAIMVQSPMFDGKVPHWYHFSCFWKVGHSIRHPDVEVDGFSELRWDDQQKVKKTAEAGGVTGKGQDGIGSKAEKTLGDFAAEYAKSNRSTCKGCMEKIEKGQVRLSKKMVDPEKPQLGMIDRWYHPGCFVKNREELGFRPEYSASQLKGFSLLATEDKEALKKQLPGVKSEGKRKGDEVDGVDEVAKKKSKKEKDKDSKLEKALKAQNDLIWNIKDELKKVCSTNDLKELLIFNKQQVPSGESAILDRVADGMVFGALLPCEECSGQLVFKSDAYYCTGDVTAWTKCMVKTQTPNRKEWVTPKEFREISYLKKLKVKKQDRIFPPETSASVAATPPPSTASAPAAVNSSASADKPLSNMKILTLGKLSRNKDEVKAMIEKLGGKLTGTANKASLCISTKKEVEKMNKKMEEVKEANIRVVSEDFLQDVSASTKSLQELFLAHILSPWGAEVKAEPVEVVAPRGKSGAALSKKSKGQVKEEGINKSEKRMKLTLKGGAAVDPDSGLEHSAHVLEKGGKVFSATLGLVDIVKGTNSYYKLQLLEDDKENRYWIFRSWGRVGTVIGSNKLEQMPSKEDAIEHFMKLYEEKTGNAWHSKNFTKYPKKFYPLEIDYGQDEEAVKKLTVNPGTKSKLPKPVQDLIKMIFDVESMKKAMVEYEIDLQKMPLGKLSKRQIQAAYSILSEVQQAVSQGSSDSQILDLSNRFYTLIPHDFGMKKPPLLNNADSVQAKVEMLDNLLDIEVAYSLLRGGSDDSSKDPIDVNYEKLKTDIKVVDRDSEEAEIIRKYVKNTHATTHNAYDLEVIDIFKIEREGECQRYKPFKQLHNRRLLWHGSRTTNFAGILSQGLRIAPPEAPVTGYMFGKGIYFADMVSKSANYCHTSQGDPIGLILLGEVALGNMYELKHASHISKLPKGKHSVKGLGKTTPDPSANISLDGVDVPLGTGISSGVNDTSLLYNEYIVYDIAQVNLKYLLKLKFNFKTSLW

Row | binding [1] | binding [2] | Substance
1 | binds |  | endogenous PARP1 in DC tissues (from UniProt P09874 1-1014) (enzyme)
2 |  | binds | exogenous PARP1 (from UniProt P09874 1-1014) (enzyme)

Source: publication PMC10060430
